These are yes or no findings as the source states them, for the method shown. Some binding calls cover weakened binding; strength is not graded here. Where a sequence is shown, tags or fusion partners need not be part of it.
Molecular target: gp240 antigen (human) (UniProt Q6UVK1)
Experiment: uptake into gp240-positive A375-M and AAB-527 melanoma cells (50-200 nM, 2 h), acid strip of the surface, Western blot of lysates with anti-IkB antibody; 63-kDa band absent in gp240-negative TXM-1 cells

Chains of the proteins cited; added tags and fusions are not shown. Residues count along the entry.
UniProt Q6UVK1, residues 30-2322: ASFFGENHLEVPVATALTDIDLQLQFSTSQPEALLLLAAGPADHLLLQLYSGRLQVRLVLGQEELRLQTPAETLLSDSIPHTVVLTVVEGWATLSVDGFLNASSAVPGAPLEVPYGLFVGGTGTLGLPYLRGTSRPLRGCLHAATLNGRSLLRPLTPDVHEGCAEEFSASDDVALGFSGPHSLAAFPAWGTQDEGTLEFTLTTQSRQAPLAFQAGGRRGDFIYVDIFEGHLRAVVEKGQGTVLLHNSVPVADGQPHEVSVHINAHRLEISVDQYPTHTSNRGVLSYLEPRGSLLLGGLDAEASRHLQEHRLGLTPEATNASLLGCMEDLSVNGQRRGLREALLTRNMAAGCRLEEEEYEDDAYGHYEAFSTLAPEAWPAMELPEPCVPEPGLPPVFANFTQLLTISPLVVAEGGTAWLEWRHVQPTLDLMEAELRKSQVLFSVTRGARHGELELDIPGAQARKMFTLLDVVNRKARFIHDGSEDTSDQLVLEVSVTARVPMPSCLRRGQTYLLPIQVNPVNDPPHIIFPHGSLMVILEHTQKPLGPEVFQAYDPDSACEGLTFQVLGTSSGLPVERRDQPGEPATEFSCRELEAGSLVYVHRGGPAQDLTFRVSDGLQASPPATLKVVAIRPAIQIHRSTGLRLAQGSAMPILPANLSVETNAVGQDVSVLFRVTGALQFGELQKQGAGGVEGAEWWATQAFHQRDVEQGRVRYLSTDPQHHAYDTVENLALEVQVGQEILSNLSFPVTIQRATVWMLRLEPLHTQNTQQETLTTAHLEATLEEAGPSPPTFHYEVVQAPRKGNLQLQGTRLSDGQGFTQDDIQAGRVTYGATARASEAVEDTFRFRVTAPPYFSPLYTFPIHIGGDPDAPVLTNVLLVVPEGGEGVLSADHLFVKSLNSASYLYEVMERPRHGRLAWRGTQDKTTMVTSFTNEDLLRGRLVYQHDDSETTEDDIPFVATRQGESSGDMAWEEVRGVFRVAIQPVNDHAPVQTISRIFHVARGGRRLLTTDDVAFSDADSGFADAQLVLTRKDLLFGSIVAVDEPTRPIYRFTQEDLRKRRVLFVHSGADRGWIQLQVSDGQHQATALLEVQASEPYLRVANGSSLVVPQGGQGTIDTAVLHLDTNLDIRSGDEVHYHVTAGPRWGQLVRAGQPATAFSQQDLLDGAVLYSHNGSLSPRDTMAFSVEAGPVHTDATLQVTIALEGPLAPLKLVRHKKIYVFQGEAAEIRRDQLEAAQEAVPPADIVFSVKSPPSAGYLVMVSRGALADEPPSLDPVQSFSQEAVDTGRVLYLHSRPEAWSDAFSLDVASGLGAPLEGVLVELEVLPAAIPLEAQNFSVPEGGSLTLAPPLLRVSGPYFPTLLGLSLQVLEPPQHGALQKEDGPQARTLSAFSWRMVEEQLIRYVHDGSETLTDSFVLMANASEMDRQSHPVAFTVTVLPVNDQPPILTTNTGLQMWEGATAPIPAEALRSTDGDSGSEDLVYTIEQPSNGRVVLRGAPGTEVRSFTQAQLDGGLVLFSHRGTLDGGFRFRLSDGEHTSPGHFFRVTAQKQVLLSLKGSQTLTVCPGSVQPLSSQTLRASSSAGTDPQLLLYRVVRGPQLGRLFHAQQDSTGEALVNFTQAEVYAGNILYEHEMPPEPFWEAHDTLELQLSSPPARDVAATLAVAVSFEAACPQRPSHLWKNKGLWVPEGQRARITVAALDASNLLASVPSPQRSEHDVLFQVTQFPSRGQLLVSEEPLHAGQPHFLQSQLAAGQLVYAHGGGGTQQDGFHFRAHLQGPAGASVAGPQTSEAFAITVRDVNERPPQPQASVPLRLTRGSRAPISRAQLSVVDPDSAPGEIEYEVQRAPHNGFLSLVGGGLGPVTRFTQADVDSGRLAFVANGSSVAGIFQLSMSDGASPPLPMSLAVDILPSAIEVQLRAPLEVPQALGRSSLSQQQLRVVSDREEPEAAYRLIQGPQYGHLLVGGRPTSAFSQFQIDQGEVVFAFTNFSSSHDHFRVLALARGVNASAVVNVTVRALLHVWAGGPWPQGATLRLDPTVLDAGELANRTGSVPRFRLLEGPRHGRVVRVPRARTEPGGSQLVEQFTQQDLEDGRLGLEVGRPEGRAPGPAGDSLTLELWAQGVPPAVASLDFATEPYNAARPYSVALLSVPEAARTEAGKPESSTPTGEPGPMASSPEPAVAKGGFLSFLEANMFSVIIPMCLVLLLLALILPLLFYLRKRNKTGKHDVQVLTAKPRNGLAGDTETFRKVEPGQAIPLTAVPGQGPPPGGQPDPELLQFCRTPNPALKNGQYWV

binding: binds
B1: IkBα/scFvMEL fusion protein (protein)
chain: GSFQAAERPQEWAMEGPRDGLKKERLLDDRHDSGLDSMKDEEYEQMVKELQEIRLEPQEVPRGSEPWKQQLTEDGDSFLHLAIIHEEKALTMEVIRQVKGDLAFLNFQNNLQQTPLHLAVITNQPEIAEALLGAGCDPELRDFRGNTPLHLACEQGCLASVGVLTQSCTTPHLHSILKATNYNGHTCLHLASIHGYLGIVELLVSLGADVNAQEPCNGRTALHLAVDLQNPDLVSLLLKCGADVNRVTYQGYSPYQLTWGRPSTRIQQQLGQLTLENLQMLPESEDEESYDTESEFTEFTEDELPYDDCVFGGQRLTLGGGGSTDIVMTQSQKFMSTSVGDRVSVTCKASQNVDTNVAWYQQKPGQSPEPLLFSASYRYTGVPDRFTGSGSGTDFTLTISNVQSEDLAEYFCQQYNSYPLTFGGGTKLEIKGSTSGSGKPGSGEGSTKGEVKVEESGGGLVQPGGSMKLSCVVSGFTFGNYWMNWVRQSPEKGLEWIAEIRLKSNNFARYYAESVKGRFTISRDDSKSSVYLQMINLRAEDTGIYYCTSYGNYVGHYFDHWGQGTTLTVSS

— patent publication US20070202593A1
